For at least one entry, the source does not settle the construct or the ends of the probe. For some assays here: Weaker means in comparison with the reference protein, sequence or condition of that experiment. For some assays here: At least one verdict rests on a figure or table, not on a statement of the authors.
Columns and labels:
[1] = tested on: peptide 4 (stapled Nrf2-derived); test: EMSA; conditions: EMSA: 10 mM Tris pH 7.5, 100 mM KCl, 2 mM MgCl2, 0.5 mM EDTA, 10 ug/mL BSA, 0.1 mM DTT, 2.5% glycerol, 30 min RT, gel at 4 C; protein details: hydrocarbon staple; label: 5'-6FAM on strand 1
[2] = tested on: peptide 4 (stapled Nrf2-derived); test: fluorescence polarization; conditions: FP: 50 mM Tris/HCl pH 7.5, 100 mM NaCl, 2 mM MgCl2, 0.5 mM EDTA, 10 ug/mL BSA, 0.1 mM DTT, 0.01% Tween-20, 10 nM DNA, 60 min RT; protein details: hydrocarbon staple; label: 5'-6FAM on strand 1
[3] = tested on: peptide 5 (linear Nrf2-derived); test: EMSA; conditions: EMSA: 10 mM Tris pH 7.5, 100 mM KCl, 2 mM MgCl2, 0.5 mM EDTA, 10 ug/mL BSA, 0.1 mM DTT, 2.5% glycerol, 30 min RT, gel at 4 C; label: 5'-6FAM on strand 1

Sequence | binding result [1] | binding result [2] | binding result [3]
CGGAATATCGTCATAGCTATTACTC (double strand) [MARE23_scrambled] | binds | binds | –
CGGAATCAATGACTCATTGTTACTC (double strand) [MARE23] | binds | – | binds more weakly
CGGAATGCAATAAGTTACGTTACTC (double strand) [randomized sequence DNA] | binds | – | –

From article PMC9216541 (PLoS ONE, 2022)
